Drawing on PMC7119369, this text covers binding for one substance.

Amino acid sequences for entries named in this document (tags omitted).
UniProt P31749: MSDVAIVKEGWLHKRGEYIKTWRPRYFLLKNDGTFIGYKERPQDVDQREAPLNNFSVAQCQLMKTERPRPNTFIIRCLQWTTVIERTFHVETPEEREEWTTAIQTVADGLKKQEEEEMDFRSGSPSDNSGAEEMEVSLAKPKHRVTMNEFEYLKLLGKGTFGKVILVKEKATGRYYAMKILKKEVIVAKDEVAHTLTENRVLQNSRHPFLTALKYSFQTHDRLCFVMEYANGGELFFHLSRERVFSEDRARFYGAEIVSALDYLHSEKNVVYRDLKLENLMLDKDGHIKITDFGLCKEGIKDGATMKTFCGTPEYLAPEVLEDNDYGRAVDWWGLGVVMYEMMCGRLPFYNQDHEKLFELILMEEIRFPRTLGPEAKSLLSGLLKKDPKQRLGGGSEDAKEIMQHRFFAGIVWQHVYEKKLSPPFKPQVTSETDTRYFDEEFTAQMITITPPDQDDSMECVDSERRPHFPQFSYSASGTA

These are yes or no findings as the source states them, for the method shown. In cells and extracts the contact can be indirect. Binding can be weak; no strength is given.

In this test the target is Myc-Akt1 (UniProt P31749). The experiment in a line: co-IP; HA-tagged CDKL3 constructs and Myc-Akt1 or Akt1 constructs expressed exogenously; total cell lysate on α-HA-agarose or α-myc-agarose at 4°C overnight; resin washed five times with TBS-T; Western blot; reverse IP also done for the Akt1 mapping.

Consider “HA-CDKL3 (cyclin-dependent kinase-like 3), full length (from UniProt Q8IVW4-2) (enzyme)”, for which the binding entry is given as “binds”.
